Data reported in PubChem BioAssay AID1117319 (Southern Research Institute, 2015).
Several values for one entry are separate records, joined by “and”; a condition that tells them apart may be missing. Equal entries are not always repeated. Out of some 260,000 compounds screened, about 1,500 (0.58%) were called active. The shares of active, inactive and inconclusive entries below differ from those in the screen.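 How the source made its calls: active means inhibition above a set limit at one or more doses, reproduced on every date tested; inconclusive means results disagree between test dates, or hit never tested in dose response; inactive means the rest.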

The chains behind the UniProt entries cited, without tags or fusion partners. Where a name states a change or a piece, a line headed by the entry shows the natural chain unless it says otherwise.
UniProt P69720: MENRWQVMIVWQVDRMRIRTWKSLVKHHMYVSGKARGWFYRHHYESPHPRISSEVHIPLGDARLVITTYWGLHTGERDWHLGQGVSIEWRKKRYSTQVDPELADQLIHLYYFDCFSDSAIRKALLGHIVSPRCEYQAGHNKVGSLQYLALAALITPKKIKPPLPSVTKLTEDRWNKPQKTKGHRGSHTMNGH
UniProt P69721: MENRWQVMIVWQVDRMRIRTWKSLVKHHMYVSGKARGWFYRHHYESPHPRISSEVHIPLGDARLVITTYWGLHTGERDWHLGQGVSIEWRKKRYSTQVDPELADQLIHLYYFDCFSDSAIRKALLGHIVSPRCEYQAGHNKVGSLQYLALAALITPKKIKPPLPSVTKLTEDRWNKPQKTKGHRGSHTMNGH
UniProt P69722: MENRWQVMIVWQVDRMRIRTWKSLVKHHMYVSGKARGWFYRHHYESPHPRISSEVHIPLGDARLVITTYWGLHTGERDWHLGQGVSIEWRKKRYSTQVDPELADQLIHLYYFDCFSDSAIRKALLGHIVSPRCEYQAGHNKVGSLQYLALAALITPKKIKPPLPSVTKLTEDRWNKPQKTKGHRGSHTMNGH
UniProt P69723: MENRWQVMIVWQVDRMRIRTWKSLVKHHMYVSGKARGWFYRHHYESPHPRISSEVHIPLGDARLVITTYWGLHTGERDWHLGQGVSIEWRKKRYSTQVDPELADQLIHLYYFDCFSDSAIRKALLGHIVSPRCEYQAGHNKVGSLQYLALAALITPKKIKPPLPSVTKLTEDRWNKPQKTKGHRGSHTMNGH
UniProt Q9HC16: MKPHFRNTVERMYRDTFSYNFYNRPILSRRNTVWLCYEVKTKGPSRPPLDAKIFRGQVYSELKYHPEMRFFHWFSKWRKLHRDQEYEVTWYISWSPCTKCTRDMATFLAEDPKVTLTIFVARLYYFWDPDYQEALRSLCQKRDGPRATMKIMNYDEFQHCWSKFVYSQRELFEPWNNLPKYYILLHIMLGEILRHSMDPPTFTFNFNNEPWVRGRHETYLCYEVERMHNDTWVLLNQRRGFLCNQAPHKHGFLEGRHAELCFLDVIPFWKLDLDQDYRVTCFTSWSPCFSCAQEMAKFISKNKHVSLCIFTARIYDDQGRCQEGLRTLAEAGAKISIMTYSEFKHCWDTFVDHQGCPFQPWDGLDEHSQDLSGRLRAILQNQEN

These compounds were tested against Virion infectivity factor (Human immunodeficiency virus type 1 group M subtype B (isolate BH10)) + Virion infectivity factor (Human immunodeficiency virus type 1 group M subtype B (isolate BRU/LAI)) + Virion infectivity factor (Human immunodeficiency virus type 1 group M subtype B (isolate PCV12)) + Virion infectivity factor (Human immunodeficiency virus type 1 group M subtype B (isolate HXB2)) + DNA dC->dU-editing enzyme APOBEC-3G (Homo sapiens) (UniProt P69720+P69721+P69722+P69723+Q9HC16) (assay: inhibitors of Vif binding to APOBEC3G peptide, primary screen, biochemical, TR-FRET, GST-Vif 1-94, biotin-A3G peptide, dose response retest (AID 1117319;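 further: Vif residues 1-94 fused to GST binding biotinylated APOBEC3G peptide 110-148; 0% = full assay without inhibitor and 100% = GST in place of GST-Vif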)). Settings: stronger effect = higher value.

SMILES	inhibition
N#Cc1c(N2CCCC(O)C2)nc(N)c2c(N)nc3c(c12)CC(=O)N3C12CC3CC(CC(C3)C1)C2 (configuration not stated)	inconclusive: 59.2%
Cc1ccsc1/C=C/C1=Cc2c(sc(NC(=O)CSc3n[nH]c(N)n3)c2C#N)C(C)(C)C1	inconclusive: 45.3% and inactive: 22.1%
Cc1ccc(-n2c(-c3ccncc3)n[nH]c2=S)cc1	inconclusive: 46.9%
CCN1CCCC1CNS(=O)(=O)c1cccc(C(F)(F)F)c1 (configuration not stated)	inconclusive: 35.2%
O=C(Cc1ccccc1)NCC1CCCO1 (configuration not stated)	inconclusive: 38.8%
CCOC(=O)C1(c2nc(N)cs2)COC(=O)C1 (configuration not stated)	inconclusive: 41.8%
O=[N+]([O-])c1ccc2nc(-[n+]3c(-c4ccccc4)cc(-c4ccccc4)cc3-c3ccccc3)[nH]c2c1	inconclusive: 38.8%
CCCCNS(=O)(=O)c1ccc2nc(-c3cccs3)cc(C(=O)NCC(OC)OC)c2c1	inconclusive: 35.8%
CCn1c(SCCOc2ccc(Cl)cc2)nnc1-c1cccs1	inconclusive: 37.1%
C/C(=C\C(=O)c1cccnc1)Nc1ccc(O)cc1	inconclusive: 88.7%
CC(/C=N/n1cnnc1)=C\c1ccccc1	inconclusive: 58.7%
CCN(CC)C(=O)CSc1nc(C)cc(-c2cccs2)c1C#N	inconclusive: 59.3%
COc1ccc([N+](=O)[O-])cc1N(CC(=O)O)S(C)(=O)=O	inconclusive: 42.5%
CCOc1cc(/C=C2/SC(=S)N(Cc3ccccc3)C2=O)ccc1O	inactive: 6.48%
Cc1ccc2oc(-c3cccc(NC(=S)NC(=O)/C=C/c4ccco4)c3)nc2c1	inconclusive: 36.9%
COc1cc(Cl)cc(C2NC(=O)NC(C)=C2C(=O)NCc2ccccc2)c1O (configuration not stated)	inconclusive: 45.8%
Cc1csc(C2=C(O)CN(c3ccc4c(c3)OCCOCCOCCOCCO4)C2=N)n1	inconclusive: 48.9%
O=C1NC(=Nc2ccc3ccccc3c2)S/C1=C/c1ccco1	inactive: -0.8%
NC(=O)CSc1nnc(COc2ccccc2)n1Cc1ccco1	inconclusive: 36%
CCOC(=O)C1=C(CC)Nc2ccccc2N=C1NC(=O)c1ccc(S(=O)(=O)N2CCOCC2)cc1	inactive: -4.07%
CCOC(=O)CNC(=O)C1c2cc(OC)c(OC)cc2C(=O)N(C)C1c1ccccc1F (configuration not stated)	inconclusive: 51.2%
C=CCSc1nnc(-c2c[nH]c3ccccc23)n1CC	inconclusive: 33.6%

SMILES	inhibition
S=C(NCc1ccccc1Cl)Nc1ccccc1Cl	inconclusive: 57.7%
CCc1ccc(-n2c(C)cc(/C=N/NC(=O)c3ccncc3)c2C)cc1	inconclusive: 36%
N=c1c(C(=O)NCc2ccc(F)cc2)cc2c(=O)n3ccccc3nc2n1CC1CCCO1 (configuration not stated)	inconclusive: 44.5%
O=C1[C@@H]2[C@H](C(=O)N1Cc1cccnc1)[C@H]1C=C[C@@H]2C1	inconclusive: 54.4%
Cc1ccc(/C=C2\CCCC3=C2NC(=S)NC3c2ccc(C)cc2)cc1 (configuration not stated)	inconclusive: 38.3%
COC(=O)c1cc(S(=O)(=O)N2CCC(C)CC2)ccc1F	inconclusive: 49.1%
CCOc1ccc(NC(=O)CN2C(=O)C3CC=CCC3C2=O)cc1 (configuration not stated)	inconclusive: 32%
Cc1ccc(-n2c(Cc3cccn3C)nnc2SCC(=O)Nc2ccc3c(c2)OCO3)cc1	inconclusive: 60.6%
COc1ccc2cc(C#N)c(Nc3cccc(F)c3)nc2c1	inactive: -0.27%
Cn1ncc(N=Cc2ccccc2O)c1C(=O)Nc1ccccc1	inconclusive: 51.2%
O=C(c1ccc(COc2ccccc2[N+](=O)[O-])o1)N1CCCCC1	inconclusive: 38.1%
Cc1nc2c(-c3ccccc3)c(C)nn2c(C)c1CC(=O)O	inconclusive: 51.9%
COc1ccc(-c2nn(C)c(=O)c3ccccc23)cc1CNC(=O)NC1CCCCC1	inconclusive: 46%
Cc1cnc(C(=O)OCC(=O)NC2CCCC(C)C2C)cn1 (configuration not stated)	inconclusive: 56.8%
CC(NCc1cccnc1)c1ccccc1 (configuration not stated)	inconclusive: 54.6%
CCN(CC1COc2ccccc2O1)S(=O)(=O)c1ccc(C)cc1 (configuration not stated)	inconclusive: 37%
COc1ccc(Oc2nc(C(F)(F)F)nc3ccccc23)cc1	inconclusive: 59.7%
O=C(O)Cn1cc(/C=C2/NC(=O)N(c3ccc(Cl)cc3)C2=O)c2ccccc21	inactive: -2.83%
O=C(CN(C(=O)Cn1nnc(-c2ccc(F)cc2)n1)c1cnc2ccccc2c1)NCC1CCCO1 (configuration not stated)	inactive: -11.4%
CCN(CC)S(=O)(=O)c1cccc(NC(=O)COC(=O)CCC(=O)c2ccc(F)cc2)c1	inconclusive: 38.9%
Cc1ccc(C(=O)N/N=C2/NC(=O)CC(C(=O)Nc3ccccc3)S2)cc1 (configuration not stated)	inconclusive: 33%
CC(CN1CCCCC1)OC(=O)c1cc2ccccc2o1 (configuration not stated)	inconclusive: 61.3%

Part of the list above, as a markdown table:

| SMILES | inhibition |
| --- | --- |
| COc1cc(Cl)cc(C2NC(=O)NC(C)=C2C(=O)NCc2ccccc2)c1O (configuration not stated) | inconclusive: 45.8% |
| Cc1csc(C2=C(O)CN(c3ccc4c(c3)OCCOCCOCCOCCO4)C2=N)n1 | inconclusive: 48.9% |
| O=C1NC(=Nc2ccc3ccccc3c2)S/C1=C/c1ccco1 | inactive: -0.8% |
| NC(=O)CSc1nnc(COc2ccccc2)n1Cc1ccco1 | inconclusive: 36% |
| CCOC(=O)C1=C(CC)Nc2ccccc2N=C1NC(=O)c1ccc(S(=O)(=O)N2CCOCC2)cc1 | inactive: -4.07% |
| CCOC(=O)CNC(=O)C1c2cc(OC)c(OC)cc2C(=O)N(C)C1c1ccccc1F (configuration not stated) | inconclusive: 51.2% |
| C=CCSc1nnc(-c2c[nH]c3ccccc23)n1CC | inconclusive: 33.6% |
| CCc1ccc(-n2c(C)cc(/C=N/NC(=O)c3ccncc3)c2C)cc1 | inconclusive: 36% |
| N=c1c(C(=O)NCc2ccc(F)cc2)cc2c(=O)n3ccccc3nc2n1CC1CCCO1 (configuration not stated) | inconclusive: 44.5% |
| Cc1ccc(/C=C2\CCCC3=C2NC(=S)NC3c2ccc(C)cc2)cc1 (configuration not stated) | inconclusive: 38.3% |
| COC(=O)c1cc(S(=O)(=O)N2CCC(C)CC2)ccc1F | inconclusive: 49.1% |
| CCOc1ccc(NC(=O)CN2C(=O)C3CC=CCC3C2=O)cc1 (configuration not stated) | inconclusive: 32% |
| Cc1ccc(-n2c(Cc3cccn3C)nnc2SCC(=O)Nc2ccc3c(c2)OCO3)cc1 | inconclusive: 60.6% |
| COc1ccc2cc(C#N)c(Nc3cccc(F)c3)nc2c1 | inactive: -0.27% |
| O=C(c1ccc(COc2ccccc2[N+](=O)[O-])o1)N1CCCCC1 | inconclusive: 38.1% |
| Cc1nc2c(-c3ccccc3)c(C)nn2c(C)c1CC(=O)O | inconclusive: 51.9% |
| COc1ccc(-c2nn(C)c(=O)c3ccccc23)cc1CNC(=O)NC1CCCCC1 | inconclusive: 46% |
| Cc1cnc(C(=O)OCC(=O)NC2CCCC(C)C2C)cn1 (configuration not stated) | inconclusive: 56.8% |
| CC(NCc1cccnc1)c1ccccc1 (configuration not stated) | inconclusive: 54.6% |
| CCN(CC1COc2ccccc2O1)S(=O)(=O)c1ccc(C)cc1 (configuration not stated) | inconclusive: 37% |
| COc1ccc(Oc2nc(C(F)(F)F)nc3ccccc23)cc1 | inconclusive: 59.7% |
| O=C(O)Cn1cc(/C=C2/NC(=O)N(c3ccc(Cl)cc3)C2=O)c2ccccc21 | inactive: -2.83% |
| O=C(CN(C(=O)Cn1nnc(-c2ccc(F)cc2)n1)c1cnc2ccccc2c1)NCC1CCCO1 (configuration not stated) | inactive: -11.4% |
| CCN(CC)S(=O)(=O)c1cccc(NC(=O)COC(=O)CCC(=O)c2ccc(F)cc2)c1 | inconclusive: 38.9% |
| Cc1ccc(C(=O)N/N=C2/NC(=O)CC(C(=O)Nc3ccccc3)S2)cc1 (configuration not stated) | inconclusive: 33% |
| CC(CN1CCCCC1)OC(=O)c1cc2ccccc2o1 (configuration not stated) | inconclusive: 61.3% |

The list goes on.

SMILES	inhibition
Cc1ccc(C2C(=O)N(C3CCC(C)CC3)CC(=O)N2C2CC2)cc1 (configuration not stated)	inconclusive: 43.7%
CC(C)(C)c1cc(C(=O)NCc2cccnc2)ccn1	inconclusive: 13%
COc1cc(/C=N/NC(=O)C2C3CCCCC32C)cc(Br)c1O (configuration not stated)	inconclusive: 34.6%
O=C1/C(=C\c2ccc(O)c(O)c2)C(c2ccccc2)=NN1c1ccccc1	inconclusive: 55.8%
CC(=O)Nc1ccc(NC(=O)CCSCCc2ccccn2)cc1	inconclusive: 36.7%
CNS(=O)(=O)c1cc(O)c2c(S(=O)(=O)NC)cccc2c1	inactive: 1.99%
CC1Cc2ccccc2N1c1nc(C2CC2)nc2c1nnn2Cc1ccccc1 (configuration not stated)	inconclusive: 52.6%
Cc1ccn2c(NCc3ccc4c(c3)OCO4)c(-c3ccc(O)cc3)nc2c1	inconclusive: 44.2%
Nc1c(C(=O)N/N=C/c2cccnc2)oc2nc(-c3ccco3)cc(-c3ccco3)c12	inconclusive: 61.1%
CN1CCN(C=NC2=NN(c3cccc(C(F)(F)F)c3)CC2)CC1	inconclusive: 35.5%
CC(NS(C)(=O)=O)C(c1cccs1)N1CCN(c2ccccc2)CC1 (configuration not stated)	inconclusive: 38.1%
CCS(=O)(=O)C(=C1NCCO1)S(=O)(=O)CC	inconclusive: 36%
Cc1cccc(OCC(=O)N/N=C/C=C/c2ccco2)c1	inconclusive: 56.5%
CCC1CCCCN1c1nc(-c2cccc(OC)c2O)nc2ccccc12 (configuration not stated)	inconclusive: 40%
CCCn1c(SCC(=O)NC(C)c2ccccc2)n[nH]c1=O (configuration not stated)	inconclusive: 39.2%
COc1ccc(CN2CCN(C(=O)c3cccs3)CC2)c(OC)c1OC	inconclusive: 60%
Cc1cccc(NC(=O)c2cc3ccccc3o2)c1	inconclusive: 33.8%
Cc1ccc2c(C)c(C(=O)N3CCC(N4CCC(C(=O)NC5CC5)CC4)CC3)oc2c1	inconclusive: 55.1%
CC(=O)c1ccc(NC(=O)Nc2ccc3c(c2)nc(C)n3C)cc1	inactive: 11.4%
Cc1ccc(NC(=S)NNc2ccc([N+](=O)[O-])cc2S(=O)(=O)Nc2ccccc2C(=O)O)cc1C	inconclusive: 40.6%
Nn1c(SCc2cccc(Br)c2)nnc1-c1ccncc1	inconclusive: 50.3%
COc1ccc(CCNC(=O)C2CCCN(Cc3nc(-c4ccccc4C)oc3C)C2)cc1OC (configuration not stated)	inconclusive: 47.2%

SMILES	inhibition
Cc1ccc[n+](/C(C(=S)NCc2ccco2)=C(/[O-])c2ccccc2Cl)c1	inconclusive: 38.8%
Cc1nn2c(CN(C(=O)CN3CCOCC3)c3ccccc3)nnc2c2ccccc12	inconclusive: 35.3%
C1=C(N2CCOCC2)/C(=C/c2nc3ccccc3[nH]2)CC1	inconclusive: 35.6%
CCOC(=O)CNC(=O)CSc1nc(N)cc(N)n1	inconclusive: 42.2%
CC(OC(=O)C1=Cc2ccccc2OC1)C(=O)NCc1ccco1 (configuration not stated)	inconclusive: 60%
CCc1ccc(N(C(=O)c2csnn2)C(C(=O)NCc2ccccc2)c2ccco2)cc1 (configuration not stated)	inconclusive: 41.8%
CCOc1cc(CNc2ccc(N3CCCC3)cc2)cc(Cl)c1OC	inconclusive: 51.1%
CC(C)(C)c1ccc(/C=N/Nc2cccc(C(=O)O)c2)cc1	inconclusive: 35%
Cc1nc2ccccc2c(=O)n1/N=C/c1ccc(N(C)C)cc1	inconclusive: 61.9%
Cc1ccc2cc(C3C(C#N)=C(N)Oc4c3ccc3cccnc43)c(=O)[nH]c2c1 (configuration not stated)	inconclusive: 44.5%
Cc1ccc([N+](=O)[O-])c(C)[n+]1C	inconclusive: 44.9%
Cc1nc2ccc(NC(=O)Cc3ccsc3)cc2s1	inactive: -2.69%
S=c1[nH]c2ncccc2o1	inconclusive: 44.3%
O=C(N/N=C/c1cccc(Oc2ccc([N+](=O)[O-])cc2[N+](=O)[O-])c1)c1cncc(Br)c1	inconclusive: 33.1%
COc1ccc(/C=C(\C#N)C(=O)Nc2ccc3[nH]c(=O)[nH]c3c2)cc1	inactive: 11.7%
Cc1ccc(C)c(N2CCN(C(=O)c3ccc4nc(-c5ccco5)c(-c5ccco5)nc4c3)CC2)c1	inconclusive: 48.6%
COC(=O)Cc1cc(=O)[nH]c(Nc2nc3ccccc3o2)n1	inconclusive: 37%
Cc1ccc(NC(=O)CN2C(=O)C3C4C=CC(C4)C3C2=O)cc1S(=O)(=O)N(C)C (configuration not stated)	inconclusive: 47.5%
CS(=O)(=O)N(CC(=O)Nc1ccccc1C(=O)NCc1ccco1)c1ccccc1F	inconclusive: 35.9%
CC(C)(C)c1nnc2sc(SCC(=O)c3ccc(Cl)cc3)nn2c1=O	inconclusive: 46.1%
CCOC(=O)C1=C(N)N2C(=O)C(C)SC2=C(C(=O)OCC)C1c1cc(OC)c(OC)c(OC)c1 (configuration not stated)	inconclusive: 37.7%
